Among the data in PMC9917250 are binding values, retold here.

Amino acid sequences for entries named in this document (tags omitted).
UniProt Q13546: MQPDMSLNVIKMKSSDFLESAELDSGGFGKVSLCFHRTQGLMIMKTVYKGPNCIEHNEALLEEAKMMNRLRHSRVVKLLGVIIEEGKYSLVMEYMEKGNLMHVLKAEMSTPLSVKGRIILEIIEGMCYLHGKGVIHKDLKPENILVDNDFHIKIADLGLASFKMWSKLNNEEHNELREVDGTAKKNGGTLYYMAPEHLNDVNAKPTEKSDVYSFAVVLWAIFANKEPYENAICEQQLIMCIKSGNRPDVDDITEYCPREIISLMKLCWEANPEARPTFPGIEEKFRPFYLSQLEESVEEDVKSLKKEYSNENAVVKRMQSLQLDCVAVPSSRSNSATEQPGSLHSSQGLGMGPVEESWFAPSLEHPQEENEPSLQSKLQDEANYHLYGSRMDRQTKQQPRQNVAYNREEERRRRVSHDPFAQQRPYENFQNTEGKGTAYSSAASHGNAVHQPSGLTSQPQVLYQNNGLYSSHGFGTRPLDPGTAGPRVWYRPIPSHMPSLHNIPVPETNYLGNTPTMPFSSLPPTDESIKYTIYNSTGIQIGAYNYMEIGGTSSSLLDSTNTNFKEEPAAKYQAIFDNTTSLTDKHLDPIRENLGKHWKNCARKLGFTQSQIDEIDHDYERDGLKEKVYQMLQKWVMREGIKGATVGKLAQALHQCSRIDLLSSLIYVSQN
UniProt P42224: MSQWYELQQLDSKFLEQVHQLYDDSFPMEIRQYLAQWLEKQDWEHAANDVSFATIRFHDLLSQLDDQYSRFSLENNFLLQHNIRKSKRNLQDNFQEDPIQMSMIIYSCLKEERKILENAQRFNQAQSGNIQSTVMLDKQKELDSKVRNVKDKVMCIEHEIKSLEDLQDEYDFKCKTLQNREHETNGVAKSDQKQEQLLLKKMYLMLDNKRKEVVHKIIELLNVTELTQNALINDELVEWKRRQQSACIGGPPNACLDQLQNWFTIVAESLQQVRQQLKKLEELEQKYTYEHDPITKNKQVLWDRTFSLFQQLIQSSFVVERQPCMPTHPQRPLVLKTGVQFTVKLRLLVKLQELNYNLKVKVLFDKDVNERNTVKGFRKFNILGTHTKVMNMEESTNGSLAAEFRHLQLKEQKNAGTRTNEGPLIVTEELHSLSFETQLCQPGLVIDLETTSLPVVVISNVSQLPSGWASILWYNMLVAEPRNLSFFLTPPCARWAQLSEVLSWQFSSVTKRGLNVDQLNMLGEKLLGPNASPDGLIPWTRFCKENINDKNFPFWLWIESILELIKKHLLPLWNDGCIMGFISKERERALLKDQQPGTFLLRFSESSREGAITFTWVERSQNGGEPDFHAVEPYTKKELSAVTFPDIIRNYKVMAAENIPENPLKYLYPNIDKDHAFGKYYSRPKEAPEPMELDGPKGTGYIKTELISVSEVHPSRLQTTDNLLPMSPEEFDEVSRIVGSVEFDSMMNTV
UniProt P40763: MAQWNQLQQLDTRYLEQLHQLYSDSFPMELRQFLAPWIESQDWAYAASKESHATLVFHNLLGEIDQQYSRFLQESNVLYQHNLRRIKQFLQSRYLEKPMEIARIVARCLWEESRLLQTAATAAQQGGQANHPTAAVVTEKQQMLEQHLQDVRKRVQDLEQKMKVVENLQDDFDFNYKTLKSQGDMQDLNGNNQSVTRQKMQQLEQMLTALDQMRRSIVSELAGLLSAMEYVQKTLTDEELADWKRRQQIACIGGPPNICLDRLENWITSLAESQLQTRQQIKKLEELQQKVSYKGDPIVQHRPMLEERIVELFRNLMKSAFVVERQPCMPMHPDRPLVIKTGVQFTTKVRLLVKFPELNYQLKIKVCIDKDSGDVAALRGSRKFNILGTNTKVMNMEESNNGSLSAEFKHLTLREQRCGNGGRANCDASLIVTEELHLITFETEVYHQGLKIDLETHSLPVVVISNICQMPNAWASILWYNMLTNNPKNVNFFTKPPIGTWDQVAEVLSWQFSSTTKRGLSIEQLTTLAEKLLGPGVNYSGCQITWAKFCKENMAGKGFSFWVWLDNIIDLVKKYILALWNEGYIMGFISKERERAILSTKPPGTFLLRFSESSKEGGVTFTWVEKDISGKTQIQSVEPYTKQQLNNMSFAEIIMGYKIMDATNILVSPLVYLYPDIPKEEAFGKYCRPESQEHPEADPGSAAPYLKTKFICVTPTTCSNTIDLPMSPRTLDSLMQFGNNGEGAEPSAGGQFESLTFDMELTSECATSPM

No constants are given. Whether binding was seen depends on the method and setting. In cells and extracts the contact can be indirect. Some binding calls cover weakened binding; strength is not graded here.

Common to all, as to experiment: co-IP; procedure according to ref. 68; antibodies the same as for Western blotting; which protein was precipitated not given
(A western blot detects proteins with antibodies after separation by electrophoresis.)

The target in assay [1] is ripk1 (human (endogenous in KGN)) (UniProt Q13546).
Assay [2] deals with CCPG1 (cell cycle progression gene 1) (human (endogenous in KGN)) (UniProt Q9ULG6).
Assay [3] concerns the target STAT1 (human (endogenous in KGN)) (UniProt P42224).

For the molecule STAT3 (from UniProt P40763 1-770), the binding result in assay [1] was “binds”.

Regarding STAT1 (from UniProt P42224 1-750), the binding entry in assay [1] was “binds”. As for MAP1LC3A (from UniProt Q9H492 1-121), the binding entry in assay [2] is on record as “binds”.

B1: CCPG1 (cell cycle progression gene 1) (protein, UniProt Q9ULG6 1-757)
chain: MSENSSDSDSSCGWTVISHEGSDIEMLNSVTPTDSCEPAPECSSLEQEELQALQIEQGESSQNGTVLMEETAYPALEETSSTIEAEEQKIPEDSIYIGTASDDSDIVTLEPPKLEEIGNQEVVIVEEAQSSEDFNMGSSSSSQYTFCQPETVFSSQPSDDESSSDETSNQPSPAFRRRRARKKTVSASESEDRLVAEQETEPSKELSKRQFSSGLNKCVILALVIAISMGFGHFYGTIQIQKRQQLVRKIHEDELNDMKDYLSQCQQEQESFIDYKSLKENLARCWTLTEAEKMSFETQKTNLATENQYLRVSLEKEEKALSSLQEELNKLREQIRILEDKGTSTELVKENQKLKQHLEEEKQKKHSFLSQRETLLTEAKMLKRELERERLVTTALRGELQQLSGSQLHGKSDSPNVYTEKKEIAILRERLTELERKLTFEQQRSDLWERLYVEAKDQNGKQGTDGKKKGGRGSHRAKNKSKETFLGSVKETFDAMKNSTKEFVRHHKEKIKQAKEAVKENLKKFSDSVKSTFRHFKDTTKNIFDEKGNKRFGATKEAAEKPRTVFSDYLHPQYKAPTENHHNRGPTMQNDGRKEKPVHFKEFRKNTNSKKCSPGHDCRENSHSFRKACSGVFDCAQQESMSLFNTVVNPIRMDEFRQIIQRYMLKELDTFCHWNELDQFINKFFLNGVFIHDQKLFTDFVNDVKDYLRNMKEYEVDNDGVFEKLDEYIYRHFFGHTFSPPYGPRSVYIKPCHYSSL
On to B1, for which the binding result in assay [3] was “binds”.
